{
  "sequences": {"note": "By UniProt entry, the sequences of proteins in these tests, tags left out.", "UniProt Q9NZQ7": "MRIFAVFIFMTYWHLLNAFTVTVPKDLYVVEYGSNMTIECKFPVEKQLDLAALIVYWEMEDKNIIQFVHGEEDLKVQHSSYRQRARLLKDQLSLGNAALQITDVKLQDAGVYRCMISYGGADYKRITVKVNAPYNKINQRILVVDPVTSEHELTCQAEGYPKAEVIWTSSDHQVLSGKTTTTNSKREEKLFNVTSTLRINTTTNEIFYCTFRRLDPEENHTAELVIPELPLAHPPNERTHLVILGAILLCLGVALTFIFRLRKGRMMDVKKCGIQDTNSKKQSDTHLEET"},
  "source": "patent CN109096396A",
  "biological_target": "hPD-L1(ECD)-Fc (human) (UniProt Q9NZQ7)",
  "assay": "ELISA of crude periplasmic extract on coated antigen, anti-HA detection; positive clone = OD more than 3 times the control well",
  "note": "Results are given in words; binding and its absence hold for the method and conditions named. Some entries that bind do so weakly or less than the wild type.",
  "data": [
    {"binder": "PD-L1纳米抗体 Nb43 (VHH, not shown: small tags and cut ends) VHH: QVQLQESGGGSVQAGGSLRLSCAASRFTASMGWFRQAPGKEREGIATVSGAASTNYADSVRGRFTISKDNAKNTLYLQINSLKPEDTAVYYCAADDDYYAFLSRGARDFRYWGQGTQVTVSS", "values": [
      {"measurement": "binding", "result": "binds"}
    ]}
  ]
}
